Reference: patent publication US20240109945A1
No constants are given. Whether binding was seen depends on the method and setting. Some results given as binding are weak or reduced against the parent protein; the word gives no strength.

Protein sequences, listed by entry. Tags and fused reporters are not part of them. Residues count along the entry.
UniProt P00433, residues 31-338: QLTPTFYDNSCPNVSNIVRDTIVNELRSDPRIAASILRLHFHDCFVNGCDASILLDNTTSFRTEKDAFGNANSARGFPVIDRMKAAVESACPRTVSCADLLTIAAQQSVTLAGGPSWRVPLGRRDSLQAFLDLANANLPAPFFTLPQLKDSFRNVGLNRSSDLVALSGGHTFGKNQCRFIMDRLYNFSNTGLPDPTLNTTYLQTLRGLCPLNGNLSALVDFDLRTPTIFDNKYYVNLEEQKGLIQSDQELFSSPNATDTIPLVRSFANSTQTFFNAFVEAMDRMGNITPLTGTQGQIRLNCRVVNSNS
UniProt P01012, residues 2-386: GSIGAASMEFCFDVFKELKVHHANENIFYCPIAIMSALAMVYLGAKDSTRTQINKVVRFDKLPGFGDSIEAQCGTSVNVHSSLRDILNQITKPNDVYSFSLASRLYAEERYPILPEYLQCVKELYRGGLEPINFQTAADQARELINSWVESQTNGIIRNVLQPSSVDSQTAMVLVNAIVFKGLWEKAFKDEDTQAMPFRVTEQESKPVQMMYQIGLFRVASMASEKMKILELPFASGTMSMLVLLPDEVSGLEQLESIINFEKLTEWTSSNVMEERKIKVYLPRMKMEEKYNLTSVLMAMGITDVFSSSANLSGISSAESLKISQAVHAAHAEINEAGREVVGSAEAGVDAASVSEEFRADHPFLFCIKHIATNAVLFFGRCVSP

Key:
[1] = molecular target: Horse Radish Peroxidase (horse radish) (UniProt P00433); test: Western blot, 1 µg glycoprotein, Fbs1 variant as probe
[2] = molecular target: Ovalbumin (UniProt P01012); test: as above

binding [1]	binding [2]	Binder
binds	binds	Variant Fbs1-1 (designed binder) MGSSHHHHHHHHSSGENLYFQSHMASQQEGLVPEGSADEERDHWQQFYFLSKRRRNLLRNPCGEEDLEGWSDVEHGGDGWRVEELPGDNGVEFTQDDSVKKYFASSFEWCRKAQVIDLQAEGYWEELLDTTQPAIVVKDWYSGRTDAGSLYELTVRLLSENEDVLAEFATGQVAVPEDGSWMEISHTFIDYGPGVRFVRFEHGGQDSVYWKGWFGARVTNSSVWVEP
binds	binds	Variant Fbs1-2 (designed binder) MGSSHHHHHHHHSSGENLYFQSHMASQQEGLVPEGSADEERDHWQQFYFLSKRRRNLLRNPCGEEDLEGWSDVEHGGDGWRVEELPGDNGVEFTQDDSVKKYFASSYRWCRKAQVIDLQAEGYWEELLDTTQPAIVVKDWYSGRTDAGSLYELTVRLLSENEDVLAEFATGQVAVPEDGSWMEISHTFIDYGPGVRFVRFEHGGQDSVYWKGWFGARVTNSSVWVEP
